Laboratory results from PubChem BioAssay AID2284358 (EPA ToxCast).
The inconclusive results got no clear call from the source. Potencies of inconclusive entries are doubtful fits and often do not repeat.

Protein sequences, listed by entry. Tags and fused reporters are not part of them. Lines headed by an entry give the natural chain unless they say otherwise; changes in a name come on top.
UniProt Q7SYN5: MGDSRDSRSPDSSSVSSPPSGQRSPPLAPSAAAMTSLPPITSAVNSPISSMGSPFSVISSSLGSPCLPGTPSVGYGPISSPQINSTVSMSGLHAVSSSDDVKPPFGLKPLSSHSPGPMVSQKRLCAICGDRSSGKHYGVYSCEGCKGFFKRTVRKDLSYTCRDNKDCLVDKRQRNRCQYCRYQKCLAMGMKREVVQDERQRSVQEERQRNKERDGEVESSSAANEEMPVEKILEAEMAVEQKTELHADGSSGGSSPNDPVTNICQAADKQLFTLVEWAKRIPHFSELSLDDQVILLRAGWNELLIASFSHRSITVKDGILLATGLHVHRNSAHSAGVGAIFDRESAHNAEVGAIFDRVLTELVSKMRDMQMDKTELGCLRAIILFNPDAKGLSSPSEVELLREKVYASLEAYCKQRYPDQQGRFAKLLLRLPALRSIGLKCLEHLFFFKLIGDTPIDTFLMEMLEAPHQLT

Biological target: zebrafish Retinoid X Receptor beta (RXRb), rxrba (gene 30530) (UniProt Q7SYN5)
Assay: ATG_zfRXRb_EcoTox2: Attagene TRANS-FACTORIAL EcoTox-2 HepG2 Assay for zebrafish Retinoid X Receptor beta (RXRb); active means hit-call score of the fitted dose curve at least 0.9, where 1 is the maximum; inconclusive means response in the unintended direction; inactive means score below 0.9
Procedure: ATG_EcoTox2 is a cell-based, multiplexed assay created by modifying the existing Attagene TRANS-FACTORIAL system to include a panel of nuclear receptors from some or all the following species: human (Homo sapiens), african clawed frog (Xenopus laevis), rainbow trout (Oncorhynchus mykiss), japanese medaka (Oryzias latipes), and zebrafish (Danio rerio). The ECOTOX2-FACTORIAL format uses HepG2, a human liver cell line, with measurements taken at 24 hours after chemical dosing in a 24-well plate. ATG_zfRXRb_EcoTox2 is one of 29 assay components calculated in the ATG_EcoTox2 assay. It is designed to make measurements of mRNA induction, a form of inducible reporter, as detected with fluorescence intensity signals by Reverse transcription polymerase chain reaction (RT-PCR) and Capillary electrophoresis technology.The assay endpoint ATG_zfRXRb_EcoTox2 was analyzed in the positive analysis fitting direction relative to DMSO as the negative control and baseline of activity. Using a type of inducible reporter, measures of mRNA for gain-of-signal activity can be used to understand the reporter gene at the transcription factor-level as they relate to the gene RXRb. Furthermore, this assay endpoint can be referred to as a primary readout, because this assay has produced multiple assay endpoints where this one serves a reporter gene function. […]

O=C(O)C(F)(F)C(F)(F)C(F)(F)C(F)(F)C(F)(F)C(F)(F)C(F)(F)F
AC50: inconclusive: 75 µM

CCCCOCN(C(=O)CCl)c1c(CC)cccc1CC
AC50: inconclusive: 50 µM
